The structures appear in SMILES notation. The list does not hold the whole screen: it is rich in T/C values a quarter to a half above the control, in often repeated tests (any T/C) and in doses without a T/C. Other doses and runs of a compound stand elsewhere. T/C gives the treated animals as a percentage of the vehicle group. Some entries give survivors of the animals treated and no T/C: the source holds a T/C of zero for them, seemingly a mark for toxic or unscored doses. Some doses without a T/C left all or most animals alive at the check, yet need not have been tolerated: the source hardly ever lists a survival T/C far under the control, and the zero likely stands for such cases as well. Survivors were counted at the toxicity check, usually on the fifth day, unless a day is given; later deaths do not show. Schedule codes are those of the source, taken here to give the interval after Q, in days (D) or hours (H), and the number of doses after X. Some schedules carry Z or #; the key to these is not given. Some entries were tested several times; the results are listed from low to high. Where survival is the endpoint, the PubChem record calls one and a half times the control and up active, and a quarter to a half above the control has no call in these data; cut-offs in other NCI protocols can differ. Some T/C values carry the count of animals alive at the toxicity check (mostly the fifth day); where none is given, no animal had died by that day.

The values that follow come from PubChem BioAssay AID258 (DTP/NCI, 2004).

The subject of this assay is CD2F1 mice, L1210 leukemia sc, survival T/C. The assay is described as follows: NCI In Vivo Anticancer Drug Screen. Data for tumor model L1210 Leukemia (subcutaneous) in CD2F1 (CDF1) mice. As to conditions: T/C endpoint: median survival time, higher T/C = longer survival. In outline: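 Mice with transplanted tumor dosed; survival/tumor size read; T/C vs vehicle controls.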

The mark [1] stands for this setting: dose: 23.0 mg/kg/injection, schedule: Q01DX Z (sc), vehicle: methylcellulose (MC).
The mark [2] stands for this setting: dose: 39.0 mg/kg/injection, schedule: Q01DX Z (sc), vehicle: methylcellulose (MC).
[3] abbreviates: dose: 65.0 mg/kg/injection, schedule: Q01DX Z (sc), vehicle: methylcellulose (MC).
[4] abbreviates: dose: 108.0 mg/kg/injection, schedule: Q01DX Z (sc), vehicle: methylcellulose (MC).
The mark [5] stands for this setting: dose: 180.0 mg/kg/injection, schedule: Q01DX Z (sc), vehicle: methylcellulose (MC).
[6] abbreviates: dose: 300.0 mg/kg/injection, schedule: Q01DX Z (sc), vehicle: methylcellulose (MC).
The mark [7] stands for this setting: dose: 500.0 mg/kg/injection, schedule: Q01DX Z (sc), vehicle: methylcellulose (MC).

On to `CC[C@]1(O)C[C@H]2CN(CCc3c([nH]c4ccccc34)[C@@](C(=O)OC)(c3cc4c(cc3OC)N(C=O)[C@H]3[C@@](O)(C(=O)OC)[C@H](OC(C)=O)[C@]5(CC)C=CCN6CC[C@]43[C@@H]65)C2)C1`, for which the survivor count is, setting by setting: (dose: 0.25 mg/kg/injection, schedule: Q01DX009 (sc), vehicle: saline) 2 of 10; (dose: 0.5 mg/kg/injection, schedule: Q01DX009 (sc), vehicle: saline) 2 of 10; (dose: 1.0 mg/kg/injection, schedule: Q01DX009 (sc), vehicle: saline) 4 of 10; (dose: 2.0 mg/kg/injection, schedule: Q01DX009 (sc), vehicle: saline) 3 of 10; (dose: 4.0 mg/kg/injection, schedule: Q01DX009 (sc), vehicle: saline) 0 of 10; (dose: 5.0 mg/kg/injection, schedule: Q01DX001 (sc), vehicle: water) 6 of 10. Further, the survivor count reads like this: (dose: 10.0 mg/kg/injection, schedule: Q01DX001 (iv), vehicle: water) 4 of 10; (dose: 10.0 mg/kg/injection, schedule: Q01DX001 (sc), vehicle: water) 6 of 10; (dose: 1000.0 micrograms/kg/injection, schedule: Q01DX009 (ip), vehicle: saline) 9 of 10; (dose: 1000.0 micrograms/kg/injection, schedule: Q01DX009 (sc), vehicle: saline) 9 of 10. Further, the T/C was 130 % of control [7 of 10 alive] (dose: 2.5 mg/kg/injection, schedule: Q01DX001 (sc), vehicle: water) and 130 % of control [8 of 10 alive] (dose: 5.0 mg/kg/injection, schedule: Q01DX001 (iv), vehicle: water).

As for `Nc1c(/C=C/c2cc3cc(C4=NCCN4)ccc3o2)[nH]c2cc(C3=NCCN3)ccc12`, the survivor count (dose: 50.0 mg/kg/injection, schedule: Q01DX009 (ip), vehicle: Klucel (hydroxypropylcellulose) (HPC)) was 4 of 10.

On to `NCCCN=c1ccc2c3c1c(O)c1c(O)ccc(=O)c1c3[nH]n2CCNCCO`, for which the T/C (dose: 1.3 mg/kg/injection, schedule: Q03HX024 (ip), vehicle: saline) was 139 % of control; the T/C (dose: 3.46 mg/kg/injection, schedule: Q01DX009 (ip), vehicle: saline) was 132 % of control; the T/C (dose: 3.89 mg/kg/injection, schedule: Q03HX008 (ip), vehicle: saline) was 131 % of control; the T/C (dose: 5.7 mg/kg/injection, schedule: Q01DX009 (ip), vehicle: saline) was 149 % of control; the T/C (dose: 6.0 mg/kg/injection, schedule: Q03HX024 (ip), vehicle: saline) was 126 % of control; the T/C (dose: 6.2 mg/kg/injection, schedule: Q01DX005 (ip), vehicle: saline) is 131 % of control. Moreover, the T/C (dose: 9.6 mg/kg/injection, schedule: Q01DX009 (ip), vehicle: water) is 142 % of control; the T/C (dose: 10.4 mg/kg/injection, schedule: Q04DX003 (ip), vehicle: saline) is 139 % of control; the T/C (dose: 31.1 mg/kg/injection, schedule: Q01DX001 (ip), vehicle: saline) is 139 % of control. The survivor count runs as follows: (dose: 10.0 mg/kg/injection, schedule: Q03HX024 (ip), vehicle: saline) 7 of 10; (dose: 16.7 mg/kg/injection, schedule: Q03HX024 (ip), vehicle: saline) 5 of 10; (dose: 18.0 mg/kg/injection, schedule: Q03HX008 (ip), vehicle: saline) 6 of 10; (dose: 30.0 mg/kg/injection, schedule: Q03HX008 (ip), vehicle: saline) 1 of 10; (dose: 44.5 mg/kg/injection, schedule: Q01DX009 (ip), vehicle: saline) 9 of 10; (dose: 48.0 mg/kg/injection, schedule: Q01DX005 (ip), vehicle: saline) 10 of 10. Further, the survivor count reads like this: (dose: 133.4 mg/kg/injection, schedule: Q04DX003 (ip), vehicle: saline) 3 of 10; (dose: 144.0 mg/kg/injection, schedule: Q01DX001 (ip), vehicle: saline) 2 of 10.

On to `C[n+]1c2ccccc2nc2c(N)cc(N)cc21`, for which the survivor count (dose: 65.0 mg/kg/injection, schedule: Q01DX Z (sc), vehicle: water) is 1 of 8.

In the case of `Nc1nc(=S)c2[nH]cnc2[nH]1`, the survivor count (dose: 1.3 mg/kg/injection, schedule: Q01DX Z (sc), vehicle: other) is reported as 6 of 10.

Regarding `CS(=O)(=O)OCCCCCCCCCOS(C)(=O)=O`, the survivor count under setting [1] is listed as 0 of 10; the survivor count under setting [2] is on record as 1 of 10; the survivor count under setting [3] is on record as 1 of 10; the survivor count under setting [4] is 5 of 10; the survivor count under setting [5] is recorded as 4 of 10; the survivor count under setting [6] is listed as 1 of 10. Besides, under setting [7], the survivor count is 2 of 10. For the same compound, the T/C by setting is: (dose: 78.0 mg/kg/injection, schedule: Q01DX Z (sc), vehicle: carboxymethylcellulose (CMC)) 131 % of control; (dose: 130.0 mg/kg/injection, schedule: Q01DX Z (sc), vehicle: carboxymethylcellulose (CMC)) 137 % of control; (dose: 216.0 mg/kg/injection, schedule: Q01DX Z (sc), vehicle: carboxymethylcellulose (CMC)) 137 % of control; (dose: 360.0 mg/kg/injection, schedule: Q01DX Z (sc), vehicle: carboxymethylcellulose (CMC)) 131 % of control; (dose: 600.0 mg/kg/injection, schedule: Q01DX Z (sc), vehicle: carboxymethylcellulose (CMC)) 131 % of control.

`C[C@]12CCC(=O)C=C1CC[C@@H]1[C@@H]2C(=O)C[C@@]2(C)[C@H]1CC[C@]2(O)C(=O)CO`: the survivor count is listed as 4 of 10 under setting [4]; 4 of 10 under setting [5]; 4 of 10 under setting [6]; 5 of 10 under setting [7]; 4 of 10 (dose: 833.0 mg/kg/injection, schedule: Q01DX Z (sc), vehicle: methylcellulose (MC)).

In the case of `CCn1cnc2c(=S)nc[nH]c21`, the survivor count under setting [1] is listed as 3 of 10; the survivor count under setting [2] is listed as 3 of 10; the survivor count under setting [3] is 6 of 10; the survivor count under setting [4] is 3 of 10 and 5 of 10; the survivor count under setting [5] is 4 of 10 and 5 of 10; the survivor count under setting [6] is 5 of 10 and 6 of 10. In addition, under setting [7], the T/C was 130 [8 of 10 alive] and 130 % of control [9 of 10 alive].
